In PubChem BioAssay AID2685 (National Center for Advancing Translational Sciences (NCATS), 2010) one finds cell number change and AC50 data, which are given here for 61 compounds.

The assay is described as follows: qHTS Assay for Lipid Storage Modulators in Drosophila S3 Cells.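 For cell number change: cells counted by Cell Tracker Red CMTPX staining in the red channel.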 Particulars: BODIPY lipid droplet fluorescence, 18-24 h; for cell number change: measured here: cell count max response, cells fed with added oleic acid. Put shortly: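 Drosophila S3 cells loaded with oleic acid (400 uM, as added) and compounds at several concentrations; lipid droplets imaged by 488-nm laser-scanning cytometry, 500–530 nm intensity and object ratio to cell channel. Percent activity normalized to 20 uM Triacsin C.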
(qHTS replaces the single test concentration by a dilution series.)

Setting [1] is: measured here: lipid fluorescence (Fed channel) AC50, cells fed with added oleic acid.
[2] abbreviates: measured here: cell number channel AC50, cells fed with added oleic acid.

The list shows a part of the results. These are further read-outs of the screen, such as a control signal, another cell line or another target. No call is given for them. Most of these compounds were active or inconclusive in the main read-out, so they are no random draw. Words in brackets tell the shape of the fitted curve; partial curves, single points and poor fits give uncertain potencies.

In general, AC50 refers to the concentration at which the activity in the assay is half-maximal. A low value points to activity at low concentration. As for `CCN(CC)C(=O)/C(=C/c1ccc2c(c1)OCO2)NC(=O)c1ccc(Br)cc1`, the cell number change was -5.67%. Moreover, under setting [1], the AC50 was 0.517 µM [falling, single point].
On to `CCC(C)NC(=O)c1cn(CC)c2ccc(S(=O)(=O)N3CCCCCC3)cc2c1=O` (stereo not drawn), for which the cell number change was -5.65%. Besides, under setting [1], the half-maximal activity concentration (AC50) is 18.4 µM [falling, partial curve].
On to `Cc1cccc(NC(=O)CSCC(=O)Nc2sccc2C#N)c1`, for which the cell number change is -35.8%. The AC50 under setting [2] is 18.4 µM [falling, partial curve]. Also, the AC50 under setting [1] was 29.1 µM [falling, single point].
With `CCOc1ccc(OCC)c(NC(=O)CCS(=O)(=O)c2ccc(Br)s2)c1`, under setting [2], the AC50 is 1.64 µM [rising, single point].
For the compound `Cc1nc(NNC(=O)c2ccccc2)cc(-c2ccccc2)n1`, the cell number change was found to be 5.95%. In addition, the AC50 under setting [1] was 6.51 µM [rising, single point].
Regarding `CCN(C(=O)COC(=O)CNC(=O)C1CCCCC1)c1ccccc1`, the AC50 under setting [1] is 1.64 µM [falling, single point].
Regarding `C/C(=N\Nc1cccc(C(F)(F)F)c1)c1ccc(O)cc1`, the cell number change is -10.8%.
For the compound `Cc1ccc2c3c1C(=O)C(=O)N3C(C)(C)CC2C` (stereo not drawn), the cell number change was -11%. The AC50 under setting [1] was 9.2 µM [rising, partial curve, poor fit].
Take `N#Cc1c(N)nc(-c2ccccc2)nc1-c1ccccc1`: the cell number change is -39.6%. Besides, the AC50 under setting [2] was 18.4 µM [falling, partial curve]. In addition, the AC50 under setting [1] is 29.1 µM [falling, single point].
For the compound `COc1ccc(S(=O)(=O)Nc2ccc(S(=O)(=O)Nc3nc(C)cc(C)n3)cc2)cc1OC`, the cell number change was -1.09%. For the same compound, under setting [1], the AC50 is 0.731 µM [falling, full curve, poor fit].
With `O=C(O)c1[nH]c2ccccc2c1C(c1cc(Cl)cc([N+](=O)[O-])c1O)c1c(C(=O)O)[nH]c2ccccc12`, the cell number change was -33.7%. Further, the AC50 under setting [2] is 29.1 µM [falling, single point].
In the case of `CC(=O)N[C@@H](Cc1c[nH]c2ccccc12)C(=O)OCc1ccc(C#N)cc1`, the cell number change is -17.1%.
Regarding `CC1CCc2sc(C(=O)N3CCC(C(N)=O)CC3)cc2C1` (stereo not drawn), the cell number change amounted to 1.53%. The AC50 under setting [1] was 5.8 µM [falling, full curve].
As for `Cc1ccc(NC(=O)C2CCCN2S(=O)(=O)c2ccc3c(c2)CCC(=O)N3)cc1Cl` (stereo not drawn), the cell number change is -1.52%.
On to `COc1ccc(OC)c(CN2CCN(C(=O)CNC(=O)c3cc(C)cc(C)c3)CC2)c1`, for which the cell number change was determined as 1.63%. For the same compound, the AC50 under setting [1] was 6.51 µM [rising, single point].
With `CC(=O)N1CC(C)Sc2ccc(S(=O)(=O)NCCc3ccccc3)cc21` (stereo not drawn), the cell number change is -40.5%. Moreover, the AC50 under setting [2] is 0.00517 µM [falling, full curve, poor fit].
For the compound `O=C(Nc1ccccn1)C1CCN(S(=O)(=O)c2ccc3c(c2)OCCO3)CC1`, the cell number change amounted to 33.7%. Moreover, the AC50 under setting [2] was 18.4 µM [rising, partial curve, poor fit]. For the same compound, the AC50 under setting [1] is 13 µM [rising, partial curve].
For the compound `COc1ccc(N2CCN(C(=O)CCCCCn3c(=S)[nH]c4cc5c(cc4c3=O)OCO5)CC2)cc1`, the cell number change was found to be 1.18%. Besides, the AC50 under setting [1] was 0.58 µM [rising, single point].
As for `O=C(NCc1ccc(Cl)s1)c1cc(COc2c(F)cccc2F)on1`, the cell number change is -1.67%. Further, the AC50 under setting [1] was 0.259 µM [rising, full curve, poor fit].
With `O=[N+]([O-])/C=C/c1cn(Cc2ccc(F)cc2)c2ccccc12`, the AC50 under setting [1] is 9.2 µM [falling, partial curve].
In the case of `COc1ccc(NC(=O)CCSc2ccc3ccccc3n2)cc1`, the cell number change was -34.5%. The AC50 under setting [2] was 2.31 µM [falling, partial curve, poor fit]. Besides, the AC50 under setting [1] is 6.51 µM [rising, partial curve, poor fit].
With `Cc1ccc(OCCCCN2CCC(C)CC2)c(Br)c1`, the cell number change was -16.7%. Besides, under setting [2], the AC50 is 6.51 µM [falling, single point].
In the case of `CC1=C(C(=O)Nc2cccc(C(=O)NC3CCCCC3C)c2)SCCO1` (stereo not drawn), the cell number change was -0.295%. Moreover, the AC50 under setting [1] is 5.8 µM [falling, single point].
Regarding `CCOC(=O)N1CCN(C(=O)CSc2nc3ccccc3c(=O)n2-c2ccccc2)CC1`, the cell number change is -8.68%.
As to `O=C(Nc1ccccc1C(=O)O)c1ccc(N2C(=O)C3CC=CCC3C2=O)cc1` (stereo not drawn), the cell number change is -27.9%. Besides, the AC50 under setting [2] is 0.146 µM [falling, full curve, poor fit].
Consider `CCN=C1SC(CC(=O)NCCc2ccc(OC)cc2)C(=O)N1CC` (stereo not drawn), for which the cell number change stood at 31.2%. For the same compound, under setting [2], the AC50 was 29.1 µM [rising, single point].
In the case of `Cc1cccnc1Sc1c([N+](=O)[O-])ncn1C`, the cell number change was -4.2%. Also, under setting [1], the AC50 was 3.26 µM [rising, single point].
With `O=C(N/N=C/C(Cl)=C/c1ccccc1)c1ccncc1`, the AC50 under setting [2] is 6.51 µM [rising, single point].
`Cc1sc2nc(SCC(=O)NCCO)n(-c3ccccc3)c(=O)c2c1C`: the cell number change came to 15.3%. The AC50 under setting [1] was 0.82 µM [falling, single point].
As for `O=C(NC(=S)N1CCN(CCO)CC1)C12CC3CC(CC(C3)C1)C2`, the cell number change is 30.5%. Besides, the AC50 under setting [2] was 1.16 µM [rising, full curve]. The AC50 under setting [1] is 11.6 µM [rising, partial curve, poor fit].
For the compound `Cc1cc(C)c2nc3nc(C)c(C)cc3c(N)c2c1`, the cell number change came out at 0.172%.
Regarding `CCOC(=O)c1ccc(NC(=O)CSc2nncn2-c2cccnc2)cc1`, the cell number change was 3.36%. In addition, under setting [1], the AC50 was 0.103 µM [rising, full curve, poor fit].
As to `O=C(Nc1ccc(F)cc1)C1CCCN(S(=O)(=O)c2cccc3cccnc23)C1` (stereo not drawn), the cell number change worked out at 15.6%.
Turning to `C1=C[C@@H]2CCN(Cc3ccccc3)Cc3cccc(c32)C1`, the cell number change is -30.1%. Moreover, under setting [2], the AC50 was 16.4 µM [falling, single point]. Further, the AC50 under setting [1] is 6.51 µM [rising, single point].
For `C#CCn1c(=NC(=O)c2ccc(Br)s2)sc2cccc(OC)c21`, the cell number change turned out to be 1.01%.
Same read-out and setting: as for `CN(CCOc1cccc2ccccc12)Cc1ccccc1`, the figure is -28.3%.
On to `O=C(CC(=O)N/N=C/c1ccc(F)cc1)N/N=C/c1ccc(F)cc1`, for which, under setting [1], the AC50 is 1.84 µM [rising, single point].
`Cc1nc2nc(-c3ccc(Cl)cc3)nn2c(C)c1Cl`: the cell number change worked out at 8.2%. The AC50 under setting [2] is 0.184 µM [rising, partial curve, poor fit]. The AC50 under setting [1] is 6.51 µM [rising, single point].
Turning to `CS(=O)(=O)c1ccc(C(=O)N2CCc3ccccc3C2)cc1`, the cell number change was -41.5%. Also, the AC50 under setting [2] is 3.66 µM [falling, full curve].
Turning to `O=C(CSc1nnc(-c2ccccc2F)o1)N1CCCC1`, under setting [1], the AC50 is 1.16 µM [falling, full curve, poor fit].
Take `CC(C)(C)NC(=O)NC(=O)COc1ccccc1C#N`: the AC50 under setting [2] is 0.231 µM [rising, full curve].
As for `Cc1cccc(C(=O)NCC(=O)NCCCSc2ccccc2)c1`, the cell number change worked out at 31.4%. Moreover, under setting [2], the AC50 was 29.1 µM [rising, single point]. Besides, the AC50 under setting [1] was 29.1 µM [rising, single point].
In the case of `O=C(Nc1nc2ccc(F)cc2s1)C1=NN(c2ccccc2)C(=O)CC1`, the cell number change is -10.2%. In addition, under setting [1], the AC50 was 0.206 µM [rising, full curve].
Regarding `CN(C)c1cc[n+](CC(=O)Nc2cccc([N+](=O)[O-])c2)cc1`, the cell number change is 20.7%. In addition, the AC50 under setting [1] is 0.00461 µM [rising, full curve, poor fit].
In the case of `COc1cc(C(=O)Nc2cccc(S(=O)(=O)N3CCCC3)c2)cc(OC)c1C`, the cell number change is -20.8%. Besides, the AC50 under setting [1] was 0.731 µM [falling, single point].
As to `Cc1ccc(Cn2ccc(NC(=O)c3noc4c3CCc3ccccc3-4)n2)cc1`, the AC50 under setting [2] was 1.3 µM [rising, partial curve] and the AC50 under setting [1] is 0.00411 µM [rising, full curve, poor fit].
Regarding `c1ccc(Cc2nnc3n2N=C(c2ccccc2)CS3)cc1`, the cell number change worked out at 7.08%. Further, under setting [2], the AC50 is 0.731 µM [falling, full curve]. In addition, under setting [1], the AC50 is 0.731 µM [falling, full curve].
For the compound `O=C(NCCCn1ccnc1)/C(=C\c1ccccc1F)NC(=O)c1ccccc1`, the cell number change was -1.28%.
Regarding `CC1S/C(=N/N=C/c2ccco2)N(Cc2ccccc2)C1=O` (stereo not drawn), the cell number change was 6.21%. Also, the concentration at half-maximal activity (AC50) under setting [2] is 0.092 µM [falling, full curve, poor fit].
For `CCC(C)(C)n1nnnc1CN(Cc1ccco1)Cc1cc2cc3c(cc2[nH]c1=O)OCO3`, the cell number change was -25.9%.
Consider `COc1ccccc1CC(=O)NC1CCN(Cc2ccccc2)CC1`, for which the cell number change was 22.2%.
Turning to `CC(Nc1c([N+](=O)[O-])c(=O)oc2ccccc12)C(Cl)c1ccccc1` (stereo not drawn), the cell number change came out at 8.46%. Moreover, under setting [1], the AC50 is 0.0206 µM [rising, partial curve, poor fit].
In the case of `CNC[C@H](CC1CCCCC1)NC[C@H](CO)NCC1(c2ccccc2)CC1`, the cell number change was 19.2%. Moreover, under setting [2], the concentration at half-maximal activity (AC50) is 1.84 µM [rising, partial curve, poor fit].
Take `CC(C)OC(=O)Nc1ccc(Oc2c(F)c(F)c(F)c(F)c2F)cc1`: the cell number change is -43.9%. Besides, under setting [2], the AC50 is 18.4 µM [falling, single point]. Moreover, under setting [1], the half-maximal activity concentration (AC50) is 29.1 µM [falling, single point].
For `CC(=O)c1ccc(N2CCN(C(=O)c3nn(Cc4ccccc4)c(=O)c4ccccc34)CC2)cc1`, the cell number change was -24.5%. Besides, the AC50 under setting [1] is 0.82 µM [falling, full curve, poor fit].
As for `O=C(Nc1cccs1)Nc1c(F)cc(F)cc1Br`, the cell number change was found to be 32.3%. Besides, under setting [2], the AC50 is 2.06 µM [rising, full curve]. Further, the AC50 under setting [1] is 6.51 µM [rising, single point].
For the compound `COc1ccc(CCN2CCCC(CN(C)Cc3cc(OC)ccc3OC)C2)cc1` (stereo not drawn), the cell number change is -4.92%. In addition, under setting [1], the AC50 is 0.164 µM [rising, full curve, poor fit].
In the case of `Clc1cccc(N/N=C/c2ccncc2)c1`, the cell number change was -9.84%. The AC50 under setting [1] was 0.146 µM [rising, full curve, poor fit].
Consider `Cc1ccc(NC(=O)CCNC(=O)c2ccc([N+](=O)[O-])cc2)cc1S(=O)(=O)N1CCOCC1`, for which the cell number change stood at 6.89%. The AC50 under setting [1] was 6.51 µM [falling, single point].
Consider `COc1cccc(C(C(=O)NCc2ccccc2)N(C(=O)c2csnn2)C2CC2)c1` (stereo not drawn), for which the cell number change is -12.4%.
With `Cc1cc(=O)oc2cc(OCC(=O)NCCc3ccccc3)ccc12`, the cell number change was 7.89%.
